This passage reports binding signal (log2 enrichment (interaction score)) results from publication PMC8384837.

Residue numbers refer to the chain shown, from its start. Some of the results follow. At the low end of the ranking the order means little.

Holding throughout (conditions): yeast three-hybrid, YBZ-1, SC-Leu-His + 0.5 mM 3-AT, 4 days
In experiment [1] the target is T1, PUM1 PUF domain R5-DMR C1007D + R1008M + Q1011R (UniProt Q14671).
T1 sequence: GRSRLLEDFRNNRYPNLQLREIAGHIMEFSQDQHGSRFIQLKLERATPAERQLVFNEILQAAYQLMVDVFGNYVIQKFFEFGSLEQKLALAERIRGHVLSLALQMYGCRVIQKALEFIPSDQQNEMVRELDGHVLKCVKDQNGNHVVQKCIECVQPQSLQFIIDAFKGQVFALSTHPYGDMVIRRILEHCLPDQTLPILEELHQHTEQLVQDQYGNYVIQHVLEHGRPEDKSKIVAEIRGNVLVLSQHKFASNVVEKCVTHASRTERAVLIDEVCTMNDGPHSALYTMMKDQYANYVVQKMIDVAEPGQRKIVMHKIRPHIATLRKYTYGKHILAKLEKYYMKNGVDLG

Experiment [2] concerns the target T2, PUM1 PUF domain R5-DQR C1007D + R1008Q + Q1011R (UniProt Q14671).
T2 sequence: T1 sequence with M181Q

In experiment [3] the target is T3, PUM1 PUF domain R5-EAE C1007E + R1008A + Q1011E (UniProt Q14671).
T3 sequence: T1 sequence with D180E, M181A, R184E

Experiment [4] has as its target T4, PUM1 PUF domain R5-GNW C1007G + R1008N + Q1011W (UniProt Q14671).
T4 sequence: T1 sequence with D180G, M181N, R184W

In experiment [5] the target is T5, PUM1 PUF domain R5-GVE C1007G + R1008V + Q1011E (UniProt Q14671).
T5 sequence: T1 sequence with D180G, M181V, R184E

The target in experiment [6] is T6, PUM1 PUF domain R5-HLY C1007H + R1008L + Q1011Y (UniProt Q14671).
T6 sequence: T1 sequence with D180H, M181L, R184Y

Experiment [7] addresses T7, PUM1 PUF domain R5-HNR C1007H + R1008N + Q1011R (UniProt Q14671).
T7 sequence: T1 sequence with D180H, M181N

Experiment [8] deals with T8, PUM1 PUF domain R5-KAD C1007K + R1008A + Q1011D (UniProt Q14671).
T8 sequence: T1 sequence with D180K, M181A, R184D

In experiment [9] the target is T9, PUM1 PUF domain R5-KDK C1007K + R1008D + Q1011K (UniProt Q14671).
T9 sequence: T1 sequence with D180K, M181D, R184K

Experiment [10] has as its target T10, PUM1 PUF domain R5-KGD C1007K + R1008G + Q1011D (UniProt Q14671).
T10 sequence: T1 sequence with D180K, M181G, R184D

The target of experiment [11] is T11, PUM1 PUF domain R5-KKL C1007K + R1008K + Q1011L (UniProt Q14671).
T11 sequence: T1 sequence with D180K, M181K, R184L

Experiment [12] addresses T12, PUM1 PUF domain R5-KLH C1007K + R1008L + Q1011H (UniProt Q14671).
T12 sequence: T1 sequence with D180K, M181L, R184H

In experiment [13] the target is T13, PUM1 PUF domain R5-KLT C1007K + R1008L + Q1011T (UniProt Q14671).
T13 sequence: T1 sequence with D180K, M181L, R184T

Experiment [14] addresses T14, PUM1 PUF domain R5-KPV C1007K + R1008P + Q1011V (UniProt Q14671).
T14 sequence: T1 sequence with D180K, M181P, R184V

Experiment [15] has as its target T15, PUM1 PUF domain R5-KQD C1007K + R1008Q + Q1011D (UniProt Q14671).
T15 sequence: T1 sequence with D180K, M181Q, R184D

For experiment [16], the target named is T16, PUM1 PUF domain R5-KQV C1007K + R1008Q + Q1011V (UniProt Q14671).
T16 sequence: T1 sequence with D180K, M181Q, R184V

Experiment [17] concerns the target T17, PUM1 PUF domain R5-KSD C1007K + R1008S + Q1011D (UniProt Q14671).
T17 sequence: T1 sequence with D180K, M181S, R184D

Experiment [18] concerns the target T18, PUM1 PUF domain R5-KTL C1007K + R1008T + Q1011L (UniProt Q14671).
T18 sequence: T1 sequence with D180K, M181T, R184L

Experiment [19] deals with T19, PUM1 PUF domain R5-KTV C1007K + R1008T + Q1011V (UniProt Q14671).
T19 sequence: T1 sequence with D180K, M181T, R184V

Experiment [20] has as its target T20, PUM1 PUF domain R5-NDG C1007N + R1008D + Q1011G (UniProt Q14671).
T20 sequence: T1 sequence with D180N, M181D, R184G

Regarding “GGCUAGAACUAGUGGAUCCCCCGGCGCCCGGCGGCUCGAGCCCGGGUAAGUGUAAAUAGUCUGCAUGCCGCCGGGCGCCAUGCCUGCAGGUCGACUCUAGAAAACAUG”, the binding signal (log2 enrichment (interaction score)) in [1] was below -7.63; in experiment [2] it was below -6.1; in [3], below -7.17; in experiment [4] it was below -5.53; in [5], below -5.47; in experiment [6] it was below -7.33. In addition, the binding signal (log2 enrichment (interaction score)) is below -6.2 in [7]; below -7.92 in [8]; below -6.21 in [9]; below -8.03 in experiment [10]; below -6.32 in experiment [11]; below -7.73 in [12]. Besides, the binding signal (log2 enrichment (interaction score)) in experiment [13] was below -7.06; in experiment [14] it was below -7.28; in experiment [15], below -5.73; in experiment [16], below -5.88; in experiment [17] it was below -5.96; in experiment [18] it was below -7.2. The binding signal (log2 enrichment (interaction score)) in [19] was below -8.2; in experiment [20] it was below -7.15.
